Reference: publication PMC5717001
These are yes or no findings as the source states them, for the method shown. Binding seen in cells or lysates may run through a third protein. Some results given as binding are weak or reduced against the parent protein; the word gives no strength. Where a sequence is shown, tags or fusion partners need not be part of it.

By UniProt entry, the sequences of proteins in these tests, tags left out.
UniProt Q9Y4R8: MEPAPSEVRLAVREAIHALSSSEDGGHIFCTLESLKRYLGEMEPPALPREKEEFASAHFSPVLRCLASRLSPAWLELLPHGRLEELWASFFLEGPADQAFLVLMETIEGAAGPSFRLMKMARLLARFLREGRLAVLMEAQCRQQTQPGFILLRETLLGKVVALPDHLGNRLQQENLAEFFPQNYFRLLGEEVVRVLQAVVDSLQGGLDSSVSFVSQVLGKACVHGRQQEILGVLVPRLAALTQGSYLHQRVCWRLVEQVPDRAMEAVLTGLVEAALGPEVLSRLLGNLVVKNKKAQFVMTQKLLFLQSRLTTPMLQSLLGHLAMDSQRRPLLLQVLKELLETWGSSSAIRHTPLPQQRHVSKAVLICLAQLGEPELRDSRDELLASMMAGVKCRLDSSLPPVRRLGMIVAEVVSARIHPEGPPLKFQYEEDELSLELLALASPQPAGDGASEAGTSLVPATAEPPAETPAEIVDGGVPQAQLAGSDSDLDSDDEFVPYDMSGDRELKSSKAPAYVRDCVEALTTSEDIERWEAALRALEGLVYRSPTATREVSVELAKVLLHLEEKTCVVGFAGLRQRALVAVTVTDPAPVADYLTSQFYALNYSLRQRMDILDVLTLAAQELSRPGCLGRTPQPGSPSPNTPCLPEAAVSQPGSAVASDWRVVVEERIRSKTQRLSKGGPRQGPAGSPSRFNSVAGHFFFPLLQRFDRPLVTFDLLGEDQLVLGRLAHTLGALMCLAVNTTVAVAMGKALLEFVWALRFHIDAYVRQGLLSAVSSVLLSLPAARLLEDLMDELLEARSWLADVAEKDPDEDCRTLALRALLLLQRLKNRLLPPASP
UniProt O00311: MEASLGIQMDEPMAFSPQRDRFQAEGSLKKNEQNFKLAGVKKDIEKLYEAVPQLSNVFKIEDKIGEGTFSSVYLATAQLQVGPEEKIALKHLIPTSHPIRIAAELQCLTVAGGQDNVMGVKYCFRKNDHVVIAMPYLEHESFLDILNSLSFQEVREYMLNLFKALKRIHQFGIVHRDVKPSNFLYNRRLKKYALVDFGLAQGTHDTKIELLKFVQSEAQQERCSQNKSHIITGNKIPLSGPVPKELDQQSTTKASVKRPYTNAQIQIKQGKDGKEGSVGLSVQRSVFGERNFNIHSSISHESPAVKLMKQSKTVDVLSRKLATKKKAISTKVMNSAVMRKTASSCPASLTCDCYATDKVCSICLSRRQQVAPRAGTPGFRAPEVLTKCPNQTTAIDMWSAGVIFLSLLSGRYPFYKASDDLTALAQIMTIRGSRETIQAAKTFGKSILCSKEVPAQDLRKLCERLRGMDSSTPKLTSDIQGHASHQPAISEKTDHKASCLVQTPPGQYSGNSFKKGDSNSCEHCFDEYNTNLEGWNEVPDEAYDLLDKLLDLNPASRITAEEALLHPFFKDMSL

T1: Mre11 (from a transfected plasmid) (UniProt P49959)
T1 sequence: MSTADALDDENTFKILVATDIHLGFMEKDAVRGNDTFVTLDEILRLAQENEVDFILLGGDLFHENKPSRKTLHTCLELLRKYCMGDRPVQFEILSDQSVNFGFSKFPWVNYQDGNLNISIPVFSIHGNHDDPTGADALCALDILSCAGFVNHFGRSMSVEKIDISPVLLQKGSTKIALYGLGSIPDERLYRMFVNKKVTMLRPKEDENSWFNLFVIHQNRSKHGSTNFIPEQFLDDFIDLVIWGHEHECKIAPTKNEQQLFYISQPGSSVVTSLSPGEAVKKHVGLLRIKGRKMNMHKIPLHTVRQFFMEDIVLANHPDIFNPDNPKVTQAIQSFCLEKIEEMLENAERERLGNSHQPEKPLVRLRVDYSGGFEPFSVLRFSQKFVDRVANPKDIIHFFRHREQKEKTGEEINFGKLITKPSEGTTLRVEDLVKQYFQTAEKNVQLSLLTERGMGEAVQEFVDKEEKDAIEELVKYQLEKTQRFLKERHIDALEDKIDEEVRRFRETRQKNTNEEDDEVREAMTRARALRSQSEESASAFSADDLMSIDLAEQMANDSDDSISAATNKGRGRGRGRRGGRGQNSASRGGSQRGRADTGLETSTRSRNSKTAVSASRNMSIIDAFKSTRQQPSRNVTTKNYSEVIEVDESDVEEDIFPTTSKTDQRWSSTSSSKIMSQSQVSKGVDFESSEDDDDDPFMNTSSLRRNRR


Experiments:
[1] = molecular target: Flag-HCLK2 (human) (UniProt Q9Y4R8); experiment: co-IP; 293T cells co-transfected with Myc-Cdc7, Flag-tagged Dbf4 or Myc-tagged Dbf4 and Flag-HCLK2; for Myc-Dbf4 also with or without UV (100 J/m^2), hydrogen peroxide (200 μM) or HU (2 mM)
[2] = molecular target: T1, Mre11 (from a transfected plasmid); experiment: co-IP; 293T cells co-transfected with Flag-tagged Cdc7, Myc-tagged Dbf4 and Mre11; immunoprecipitation with anti-Cdc7 and anti-Mre11 antibody, respectively

Molecule | binding [1] | binding [2]
Myc-Cdc7 (from UniProt O00311 1-574) (enzyme) | binds | 
Myc-tagged Dbf4 (protein, UniProt Q9UBU7 1-674) MNSGAMRIHSKGHFQGGIQVKNEKNRPSLKSLKTDNRPEKSKCKPLWGKVFYLDLPSVTISEKLQKDIKDLGGRVEEFLSKDISYLISNKKEAKFAQTLGRISPVPSPESAYTAETTSPHPSHDGSSFKSPDTVCLSRGKLLVEKAIKDHDFIPSNSILSNALSWGVKILHIDDIRYYIEQKKKELYLLKKSSTSVRDGGKRVGSGAQKTRTGRLKKPFVKVEDMSQLYRPFYLQLTNMPFINYSIQKPCSPFDVDKPSSMQKQTQVKLRIQTDGDKYGGTSIQLQLKEKKKKGYCECCLQKYEDLETHLLSEQHRNFAQSNQYQVVDDIVSKLVFDFVEYEKDTPKKKRIKYSVGSLSPVSASVLKKTEQKEKVELQHISQKDCQEDDTTVKEQNFLYKETQETEKKLLFISEPIPHPSNELRGLNEKMSNKCSMLSTAEDDIRQNFTQLPLHKNKQECILDISEHTLSENDLEELRVDHYKCNIQASVHVSDFSTDNSGSQPKQKSDTVLFPAKDLKEKDLHSIFTHDSGLITINSSQEHLTVQAKAPFHTPPEEPNECDFKNMDSLPSGKIHRKVKIILGRNRKENLEPNAEFDKRTEFITQEENRICSSPVQSLLDLFQTSEEKSEFLGFTSYTEKSGICNVLDIWEEENSDNLLTAFFSSPSTSTFTGF | binds | binds

The remaining lines, values ahead:

binding [1] | binding [2] | Molecule
 | binds | Flag-tagged Cdc7 (from UniProt O00311 1-574) (enzyme)
binds |  | Flag-tagged Dbf4 (protein, UniProt Q9UBU7 1-674) MNSGAMRIHSKGHFQGGIQVKNEKNRPSLKSLKTDNRPEKSKCKPLWGKVFYLDLPSVTISEKLQKDIKDLGGRVEEFLSKDISYLISNKKEAKFAQTLGRISPVPSPESAYTAETTSPHPSHDGSSFKSPDTVCLSRGKLLVEKAIKDHDFIPSNSILSNALSWGVKILHIDDIRYYIEQKKKELYLLKKSSTSVRDGGKRVGSGAQKTRTGRLKKPFVKVEDMSQLYRPFYLQLTNMPFINYSIQKPCSPFDVDKPSSMQKQTQVKLRIQTDGDKYGGTSIQLQLKEKKKKGYCECCLQKYEDLETHLLSEQHRNFAQSNQYQVVDDIVSKLVFDFVEYEKDTPKKKRIKYSVGSLSPVSASVLKKTEQKEKVELQHISQKDCQEDDTTVKEQNFLYKETQETEKKLLFISEPIPHPSNELRGLNEKMSNKCSMLSTAEDDIRQNFTQLPLHKNKQECILDISEHTLSENDLEELRVDHYKCNIQASVHVSDFSTDNSGSQPKQKSDTVLFPAKDLKEKDLHSIFTHDSGLITINSSQEHLTVQAKAPFHTPPEEPNECDFKNMDSLPSGKIHRKVKIILGRNRKENLEPNAEFDKRTEFITQEENRICSSPVQSLLDLFQTSEEKSEFLGFTSYTEKSGICNVLDIWEEENSDNLLTAFFSSPSTSTFTGF
